Reference: patent publication US20090069237A1, “METHODS AND COMPOSITIONS FOR TREATING CONDITIONS” (priority 2007, published 2009)
Part of at least one peptide drawing is inferred or uncertain, most often the ends. Peptide text beside a SMILES is read from it.

Columns and labels:
[1] = system: post-operative pain in rats; assay: Second study: hind paw withdrawal sensitivity, von Frey filaments, post-surgery; assay type: in vivo, rat
[2] = system: Arabidopsis thaliana plants; assay: Administration to Arabidopsis thaliana plants, flowering; assay type: in vivo; settings: 10 μm in 0.01% Silwet L-77
[3] = system: post-operative pain in rats; assay: Brennan model, Von Frey testing for mechanical allodynia (first study); assay type: in vivo, rat
[4] = Anti-inflammatory properties of the peptide (statement, no method)
chronic pain = assay: Topical administration to adult male subject with chronic pain, scaled score 1 to 10; assay type: in vivo, human
[5] = system: post-incisional pain in rats; assay: Brennan model of post-incisional pain in rats, von Frey withdrawal threshold, 100 mg/kg study; assay type: in vivo, rat

Structure (SMILES): CC(C)C[C@H](NC(=O)[C@@H](N)Cc1ccccc1)C(=O)N1CCC[C@H]1C(=O)N[C@@H](CO)C(=O)O [SEQ ID NO: 1, Phe-Leu-Pro-Ser] (H-FLPS-OH; N-terminus and C-terminus assumed)
- increase in the pain threshold ([1]; 1 mg/kg, 3-hour post surgery measurements): 39%
- effect on withdrawal response compared to saline group ([1]; 50 mg/kg subdermal, Day-1, 3 h post-surgery): 125%
- withdrawal response ([1]; 50 mg/kg subdermal, Day-1, 3 h post-surgery, saline group 4.4 g): 9.9 g
- increase of withdrawal response compared to saline group ([1]; Day-3, 15.25 mg/kg subdermally): 68%
- withdrawal response ([1]; Day-3, 15.25 mg/kg subdermally (group given 1 mg/kg on day 1), saline group 12.7 g): 21.3 g
- increase in response time on Day 3 compared to saline group ([1]; group which did not receive any further dosing after Day 1): 31%
- analgesic property on Day 3 post-surgery (FIG. 3) ([1]; subdermal): has analgesic and property
- analgesic property 3 h after surgery (FIG. 2) ([1]; subdermal injection adjacent to wound, measured 15-20 min after dosing): has analgesic and property
- effect on flowering [2]: induces early flowering and abundance of flowers and pods
- pain reduction, paw withdrawal threshold (FIG. 1) ([3]; rats after surgery, 150 μg topical or subdermal, one-way ANOVA, p<0.05): significantly reduce pain
- appearance of the rats ([3]; rats in the first study): relaxed and with less anxiety
- anti-inflammatory properties [4]: no anti-inflammatory properties
- scaled pain score after the treatment (1 to 10) (chronic pain; prior to treatment the patient scored 8-9, 10 = severe pain, 1 = no pain): 2-3
- duration of treatment efficacy (chronic pain; topical single dose): about 10 days
- duration of relief (chronic pain; topical single dose about 5 μg/10 cm2): more than a week
- time to relief after administration (chronic pain; topical single dose about 5 μg/10 cm2, 5 μM in 0.01% Silwet L-77): ≤ 15 min
- withdrawal response ([5]; 100 mg/kg subdermal, Day 1, 3 h post-surgery, saline group 4.2 g): 52.7 g
- effect on withdrawal response compared to saline group ([5]; 100 mg/kg subdermal, Day 1, p≦0.05): 1,155%
- increase in pain threshold ([5]; 100 mg/kg subdermally, unpaired t test): statistically significant (analyzed by unpaired t test) increase in pain threshold
- withdrawal response ([5]; Day 3 after 100 mg/kg on Day 1, comparable to saline group 15.7 g): 19.3 g
